Results from one PubChem assay

Source: PubChem BioAssay AID1053133 (Broad Institute, 2014).

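Plate-reader measure of the Venus reporter marking one vaccinia stage in infected cells (the cell line is not named here); read time unknown.
The test concentration is not given here.
Percent change in Venus reporter signal; lower (more negative) values mean stronger inhibition of that viral stage.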

Values are in %.
The controls that fix the scale are not given here.
Common to all entries: measured here: Venus reporter, other viral stage.
Part of the compounds only, not a random draw; the main read-out is not listed here.

| # | Compound | activity change (Venus) (%) |
|---|---|---|
| 1 | `C/C=C/c1ccc2c(c1)O[C@H](CN(C)Cc1ccc(F)cc1)[C@@H](C)CN([C@@H](C)CO)S2(=O)=O` | -66.78 |
| 2 | `CC(C)NC(=O)N1[C@H](C#N)[C@H](c2ccc(-c3ccc(F)cc3)cc2)[C@H]1CO` | -25.4 |
| 3 | `O=C(C[C@H]1C[C@@H]2c3cc(NC(=O)Nc4ccc(C(F)(F)F)cc4)ccc3O[C@@H]2[C@@H](CO)O1)NCCc1ccccc1` | -40.55 |
| 4 | `N#Cc1cccc(-c2ccc(C3[C@@H]4CN(Cc5cocn5)C[C@H]3N4)cc2)c1` (stereo partly drawn) | -62.66 |
| 5 | `C[C@H](CO)N1C[C@H](C)[C@H](CN(C)C(=O)[C@H](C)c2ccccc2)OCc2ccccc2-c2c(n(C)c3ccccc23)C1=O` | -45.44 |
| 6 | `C[C@@H]1CCCCO[C@H](CN(C)Cc2ccc(Cl)c(Cl)c2)[C@H](C)CN([C@@H](C)CO)C(=O)c2cc(NS(=O)(=O)c3ccc(Cl)cc3)ccc2O1` | -31.81 |
| 7 | `COc1ccc(CN(C)C[C@H]2OCCCC[C@@H](C)Oc3ccc(N(C)C)cc3C(=O)N([C@@H](C)CO)C[C@@H]2C)cc1` | -24.34 |
| 8 | `C[C@H](CO)N1C[C@H](C)[C@H](CN(C)S(=O)(=O)c2ccc(F)cc2)Oc2c(NC(=O)NC3CCCCC3)cccc2C1=O` | -50.09 |
| 9 | `OC[C@@H]1[C@@H](c2ccc(C#CC3CC3)cc2)[C@H]2CN(CCC(F)(F)F)CCCCN12` | -51.17 |
| 10 | `COc1ccc2c3c(n(C)c2c1)[C@@H](CO)N(C(=O)Cc1ccccc1)CC31CN(C(=O)Cc2ccccc2)C1` | -53.46 |
| 11 | `Cn1cnc(S(=O)(=O)N2CCCCN3[C@H](C2)[C@H](c2ccc(C4=CCCCC4)cc2)[C@@H]3CO)c1` | -56.72 |
| 12 | `COc1ccc(S(=O)(=O)N(C)C[C@H]2OCCCC[C@@H](C)Oc3ccc(NS(=O)(=O)c4ccc(F)cc4)cc3C(=O)N([C@H](C)CO)C[C@H]2C)cc1` | -30.56 |
| 13 | `C[C@H]1CN([C@@H](C)CO)C(=O)Cc2cc(NC(=O)Nc3ccccc3)ccc2O[C@H]1CN(C)Cc1ccccc1` | -44.19 |
| 14 | `CN1c2ccc(C3=CCCCC3)cc2[C@H]2[C@H](CCN2C(=O)C2CC2)[C@@H]1CO` | -81.52 |
| 15 | `COc1ccc(-c2ccc3c(c2)O[C@H](CN(C)Cc2cccnc2)[C@@H](C)CN([C@H](C)CO)S3(=O)=O)cc1` | -64.81 |
| 16 | `C/C=C/c1ccc(C2[C@@H]3CN(C(=O)c4ccc5c(c4)OCO5)C[C@H]2N3)cc1` (stereo partly drawn) | -30.63 |
| 17 | `CC(C)CC#Cc1ccc2c(c1)O[C@@H](CN(C)C(=O)Nc1ccccc1F)[C@H](C)CN([C@@H](C)CO)S2(=O)=O` | -42.92 |
| 18 | `O=C(Nc1ccccc1)N1CC(=O)N2[C@H](C1)[C@H](c1ccc(C#CC3CCCC3)cc1)[C@@H]2CO` | -44.57 |
| 19 | `CNC[C@@H]1Oc2cc(C#Cc3ccccc3)ccc2S(=O)(=O)N([C@@H](C)CO)C[C@H]1C` | -25.34 |
| 20 | `CC(C)CC#Cc1ccc2c(c1)O[C@@H](CN(C)C)[C@H](C)CN([C@@H](C)CO)S2(=O)=O` | -44.89 |
| 21 | `C[C@H]1CN([C@@H](C)CO)C(=O)Cc2cc(NC(=O)CCCCCC(=O)Nc3ccccc3N)ccc2O[C@H]1CN(C)Cc1ccc(-c2ccccc2)cc1` | -23.96 |
| 22 | `C[C@@H]1CN([C@@H](C)CO)S(=O)(=O)c2ccc(C#Cc3ccccc3F)cc2O[C@H]1CN(C)C(=O)c1ccc2c(c1)OCO2` | -40.72 |
| 23 | `COc1ccc(S(=O)(=O)N(C)C[C@@H]2OCCCC[C@@H](C)Oc3ccc(NC(=O)c4ccccc4)cc3C(=O)N([C@H](C)CO)C[C@H]2C)cc1` | -24 |
| 24 | `O=C(C[C@@H]1CC[C@H]2[C@@H](COC[C@@H](O)CN2Cc2cccc(-c3ccncc3)c2)O1)N1CCN(c2ccccc2)CC1` | -20.44 |
| 25 | `O=C(C1CCC1)N1CCCCN2[C@H](CO)[C@@H](c3ccc(-c4cccc(F)c4)cc3)[C@H]2C1` | -28.99 |
| 26 | `C[C@@H]1CN([C@@H](C)CO)C(=O)c2cc(NS(=O)(=O)c3ccccc3)ccc2O[C@@H](C)CCCCO[C@H]1CN(C)S(=O)(=O)c1ccc(F)cc1` | -22.42 |
| 27 | `C[C@@H]1CN([C@H](C)CO)C(=O)c2cccc(NC(=O)C3CCOCC3)c2O[C@H]1CN(C)Cc1ccc(-c2ccccc2)cc1` | -40.17 |
| 28 | `C[C@H](CO)N1C[C@H](C)[C@@H](CN(C)Cc2ccc(Oc3ccccc3)cc2)Oc2ncc(-c3cccnc3)cc2C1=O` | -84.85 |
| 29 | `COc1ccc(S(=O)(=O)N(C)C[C@H]2OCCCC[C@H](C)Oc3ccc(NC(=O)C4CCCCC4)cc3C(=O)N([C@@H](C)CO)C[C@@H]2C)cc1` | -17.63 |
| 30 | `CCC(=O)N1CCCCN2[C@@H](CO)[C@@H](c3ccc(C#Cc4ccccc4)cc3)[C@@H]2C1` | -40.05 |
| 31 | `C[C@H]1CN([C@@H](C)CO)C(=O)c2cccc(NC(=O)Nc3ccc(F)cc3)c2O[C@H]1CN(C)Cc1ccc2c(c1)OCO2` | -46.9 |
| 32 | `O=C(Nc1ccccc1F)N[C@H]1CC[C@@H](CCNS(=O)(=O)c2ccc(Cl)cc2)O[C@@H]1CO` | -27.1 |
| 33 | `C[C@@H]1CN([C@@H](C)CO)C(=O)Cc2cc(NC(=O)CCCN(C)C)ccc2O[C@@H]1CN(C)Cc1ccc(-c2ccccc2)cc1` | -50.4 |
| 34 | `N#C[C@H]1[C@H](c2ccc(C#CC3CCCCC3)cc2)[C@@H](CO)N1C(=O)Nc1ccc(F)cc1` | -53.47 |
| 35 | `COc1cccc(CN2[C@@H]3CNC[C@H]2C3c2ccc(-c3cccc(OC)c3)cc2)c1` (stereo partly drawn) | -31.22 |
| 36 | `C/C=C/c1ccc([C@H]2[C@@H](CO)N3CCCCN(C(=O)Nc4ccc(F)cc4)C[C@@H]23)cc1` | -33.63 |
| 37 | `Cc1cccc(-c2ccc([C@@H]3[C@@H](CO)N4CCCCN(CCC(F)(F)F)C[C@@H]34)cc2)c1` | -67.44 |
| 38 | `COc1ccc(C#Cc2ccc([C@H]3[C@H]4CN(S(=O)(=O)c5cn(C)cn5)CCCCN4[C@H]3CO)cc2)cc1` | -28.22 |
| 39 | `CN1c2ccc(-c3cccc(F)c3)cc2[C@@H]2[C@@H](CCN2C(=O)Nc2ccccc2F)[C@@H]1CO` | -45.3 |
| 40 | `COc1ccccc1C#Cc1ccc([C@@H]2[C@@H](CO)N3CCCCN(C(=O)C4CC4)C[C@H]23)cc1` | -32.8 |
| 41 | `COc1ccc2c3c(n(C)c2c1)[C@H](CO)N(C(=O)Nc1ccccc1F)CC31CCN(C)CC1` | -28.54 |
| 42 | `C/C=C/c1ccc([C@@H]2[C@@H](CO)N3CCCCN(S(=O)(=O)c4ccc(OC)cc4)C[C@H]23)cc1` | -46.05 |
| 43 | `COc1ccccc1NC(=O)N1CCCCN2[C@@H](CO)[C@@H](c3ccc(-c4cccc(C)c4)cc3)[C@@H]2C1` | -58.2 |
| 44 | `C[C@H](CO)N1C[C@H](C)[C@H](CN(C)C(=O)NC2CCCCC2)OCCCC[C@H](C)Oc2ccc(NS(=O)(=O)c3ccccc3)cc2C1=O` | -27.83 |
| 45 | `N#Cc1ccc(-c2ccc([C@H]3[C@H]4CN(C(=O)Nc5ccc(F)cc5)CCCCN4[C@H]3CO)cc2)cc1` | -28.71 |
| 46 | `C[C@@H]1CN([C@H](C)CO)C(=O)c2c(c3ccccc3n2C)-c2ccccc2CO[C@H]1CN(C)Cc1ccc(O)cc1` | -35.58 |
| 47 | `C[C@H](NC(=O)C[C@@H]1CC[C@H]2[C@@H](COC[C@@H](O)CN2C(=O)Nc2cc(Cl)cc(Cl)c2)O1)c1ccccc1` | -28.52 |
| 48 | `Cc1ccc(-c2ccc3c(c2)O[C@@H](CN(C)Cc2ccc(F)cc2)[C@@H](C)CN([C@H](C)CO)S3(=O)=O)cc1` | -33.46 |
| 49 | `C[C@H](CO)N1C[C@H](C)[C@H](CN(C)C(=O)Cc2ccccc2)Oc2cc(C3=CCCCC3)ccc2S1(=O)=O` | -36.94 |

Some entries from above, unchanged:

Compound,activity change (Venus) (%)
COc1ccc2c3c(n(C)c2c1)[C@@H](CO)N(C(=O)Cc1ccccc1)CC31CN(C(=O)Cc2ccccc2)C1,-53.46
C[C@H](CO)N1C[C@H](C)[C@H](CN(C)S(=O)(=O)c2ccc(F)cc2)Oc2c(NC(=O)NC3CCCCC3)cccc2C1=O,-50.09
C[C@@H]1CCCCO[C@H](CN(C)Cc2ccc(Cl)c(Cl)c2)[C@H](C)CN([C@@H](C)CO)C(=O)c2cc(NS(=O)(=O)c3ccc(Cl)cc3)ccc2O1,-31.81